Experimental data as given in doi:10.1101/2021.03.08.434386.
Results are given in words; binding and its absence hold for the method and conditions named. Some entries that bind do so weakly or less than the wild type.

Protein sequences, listed by entry. Tags and fused reporters are not part of them. Residues count along the entry.
UniProt P05790, residues 22-5263: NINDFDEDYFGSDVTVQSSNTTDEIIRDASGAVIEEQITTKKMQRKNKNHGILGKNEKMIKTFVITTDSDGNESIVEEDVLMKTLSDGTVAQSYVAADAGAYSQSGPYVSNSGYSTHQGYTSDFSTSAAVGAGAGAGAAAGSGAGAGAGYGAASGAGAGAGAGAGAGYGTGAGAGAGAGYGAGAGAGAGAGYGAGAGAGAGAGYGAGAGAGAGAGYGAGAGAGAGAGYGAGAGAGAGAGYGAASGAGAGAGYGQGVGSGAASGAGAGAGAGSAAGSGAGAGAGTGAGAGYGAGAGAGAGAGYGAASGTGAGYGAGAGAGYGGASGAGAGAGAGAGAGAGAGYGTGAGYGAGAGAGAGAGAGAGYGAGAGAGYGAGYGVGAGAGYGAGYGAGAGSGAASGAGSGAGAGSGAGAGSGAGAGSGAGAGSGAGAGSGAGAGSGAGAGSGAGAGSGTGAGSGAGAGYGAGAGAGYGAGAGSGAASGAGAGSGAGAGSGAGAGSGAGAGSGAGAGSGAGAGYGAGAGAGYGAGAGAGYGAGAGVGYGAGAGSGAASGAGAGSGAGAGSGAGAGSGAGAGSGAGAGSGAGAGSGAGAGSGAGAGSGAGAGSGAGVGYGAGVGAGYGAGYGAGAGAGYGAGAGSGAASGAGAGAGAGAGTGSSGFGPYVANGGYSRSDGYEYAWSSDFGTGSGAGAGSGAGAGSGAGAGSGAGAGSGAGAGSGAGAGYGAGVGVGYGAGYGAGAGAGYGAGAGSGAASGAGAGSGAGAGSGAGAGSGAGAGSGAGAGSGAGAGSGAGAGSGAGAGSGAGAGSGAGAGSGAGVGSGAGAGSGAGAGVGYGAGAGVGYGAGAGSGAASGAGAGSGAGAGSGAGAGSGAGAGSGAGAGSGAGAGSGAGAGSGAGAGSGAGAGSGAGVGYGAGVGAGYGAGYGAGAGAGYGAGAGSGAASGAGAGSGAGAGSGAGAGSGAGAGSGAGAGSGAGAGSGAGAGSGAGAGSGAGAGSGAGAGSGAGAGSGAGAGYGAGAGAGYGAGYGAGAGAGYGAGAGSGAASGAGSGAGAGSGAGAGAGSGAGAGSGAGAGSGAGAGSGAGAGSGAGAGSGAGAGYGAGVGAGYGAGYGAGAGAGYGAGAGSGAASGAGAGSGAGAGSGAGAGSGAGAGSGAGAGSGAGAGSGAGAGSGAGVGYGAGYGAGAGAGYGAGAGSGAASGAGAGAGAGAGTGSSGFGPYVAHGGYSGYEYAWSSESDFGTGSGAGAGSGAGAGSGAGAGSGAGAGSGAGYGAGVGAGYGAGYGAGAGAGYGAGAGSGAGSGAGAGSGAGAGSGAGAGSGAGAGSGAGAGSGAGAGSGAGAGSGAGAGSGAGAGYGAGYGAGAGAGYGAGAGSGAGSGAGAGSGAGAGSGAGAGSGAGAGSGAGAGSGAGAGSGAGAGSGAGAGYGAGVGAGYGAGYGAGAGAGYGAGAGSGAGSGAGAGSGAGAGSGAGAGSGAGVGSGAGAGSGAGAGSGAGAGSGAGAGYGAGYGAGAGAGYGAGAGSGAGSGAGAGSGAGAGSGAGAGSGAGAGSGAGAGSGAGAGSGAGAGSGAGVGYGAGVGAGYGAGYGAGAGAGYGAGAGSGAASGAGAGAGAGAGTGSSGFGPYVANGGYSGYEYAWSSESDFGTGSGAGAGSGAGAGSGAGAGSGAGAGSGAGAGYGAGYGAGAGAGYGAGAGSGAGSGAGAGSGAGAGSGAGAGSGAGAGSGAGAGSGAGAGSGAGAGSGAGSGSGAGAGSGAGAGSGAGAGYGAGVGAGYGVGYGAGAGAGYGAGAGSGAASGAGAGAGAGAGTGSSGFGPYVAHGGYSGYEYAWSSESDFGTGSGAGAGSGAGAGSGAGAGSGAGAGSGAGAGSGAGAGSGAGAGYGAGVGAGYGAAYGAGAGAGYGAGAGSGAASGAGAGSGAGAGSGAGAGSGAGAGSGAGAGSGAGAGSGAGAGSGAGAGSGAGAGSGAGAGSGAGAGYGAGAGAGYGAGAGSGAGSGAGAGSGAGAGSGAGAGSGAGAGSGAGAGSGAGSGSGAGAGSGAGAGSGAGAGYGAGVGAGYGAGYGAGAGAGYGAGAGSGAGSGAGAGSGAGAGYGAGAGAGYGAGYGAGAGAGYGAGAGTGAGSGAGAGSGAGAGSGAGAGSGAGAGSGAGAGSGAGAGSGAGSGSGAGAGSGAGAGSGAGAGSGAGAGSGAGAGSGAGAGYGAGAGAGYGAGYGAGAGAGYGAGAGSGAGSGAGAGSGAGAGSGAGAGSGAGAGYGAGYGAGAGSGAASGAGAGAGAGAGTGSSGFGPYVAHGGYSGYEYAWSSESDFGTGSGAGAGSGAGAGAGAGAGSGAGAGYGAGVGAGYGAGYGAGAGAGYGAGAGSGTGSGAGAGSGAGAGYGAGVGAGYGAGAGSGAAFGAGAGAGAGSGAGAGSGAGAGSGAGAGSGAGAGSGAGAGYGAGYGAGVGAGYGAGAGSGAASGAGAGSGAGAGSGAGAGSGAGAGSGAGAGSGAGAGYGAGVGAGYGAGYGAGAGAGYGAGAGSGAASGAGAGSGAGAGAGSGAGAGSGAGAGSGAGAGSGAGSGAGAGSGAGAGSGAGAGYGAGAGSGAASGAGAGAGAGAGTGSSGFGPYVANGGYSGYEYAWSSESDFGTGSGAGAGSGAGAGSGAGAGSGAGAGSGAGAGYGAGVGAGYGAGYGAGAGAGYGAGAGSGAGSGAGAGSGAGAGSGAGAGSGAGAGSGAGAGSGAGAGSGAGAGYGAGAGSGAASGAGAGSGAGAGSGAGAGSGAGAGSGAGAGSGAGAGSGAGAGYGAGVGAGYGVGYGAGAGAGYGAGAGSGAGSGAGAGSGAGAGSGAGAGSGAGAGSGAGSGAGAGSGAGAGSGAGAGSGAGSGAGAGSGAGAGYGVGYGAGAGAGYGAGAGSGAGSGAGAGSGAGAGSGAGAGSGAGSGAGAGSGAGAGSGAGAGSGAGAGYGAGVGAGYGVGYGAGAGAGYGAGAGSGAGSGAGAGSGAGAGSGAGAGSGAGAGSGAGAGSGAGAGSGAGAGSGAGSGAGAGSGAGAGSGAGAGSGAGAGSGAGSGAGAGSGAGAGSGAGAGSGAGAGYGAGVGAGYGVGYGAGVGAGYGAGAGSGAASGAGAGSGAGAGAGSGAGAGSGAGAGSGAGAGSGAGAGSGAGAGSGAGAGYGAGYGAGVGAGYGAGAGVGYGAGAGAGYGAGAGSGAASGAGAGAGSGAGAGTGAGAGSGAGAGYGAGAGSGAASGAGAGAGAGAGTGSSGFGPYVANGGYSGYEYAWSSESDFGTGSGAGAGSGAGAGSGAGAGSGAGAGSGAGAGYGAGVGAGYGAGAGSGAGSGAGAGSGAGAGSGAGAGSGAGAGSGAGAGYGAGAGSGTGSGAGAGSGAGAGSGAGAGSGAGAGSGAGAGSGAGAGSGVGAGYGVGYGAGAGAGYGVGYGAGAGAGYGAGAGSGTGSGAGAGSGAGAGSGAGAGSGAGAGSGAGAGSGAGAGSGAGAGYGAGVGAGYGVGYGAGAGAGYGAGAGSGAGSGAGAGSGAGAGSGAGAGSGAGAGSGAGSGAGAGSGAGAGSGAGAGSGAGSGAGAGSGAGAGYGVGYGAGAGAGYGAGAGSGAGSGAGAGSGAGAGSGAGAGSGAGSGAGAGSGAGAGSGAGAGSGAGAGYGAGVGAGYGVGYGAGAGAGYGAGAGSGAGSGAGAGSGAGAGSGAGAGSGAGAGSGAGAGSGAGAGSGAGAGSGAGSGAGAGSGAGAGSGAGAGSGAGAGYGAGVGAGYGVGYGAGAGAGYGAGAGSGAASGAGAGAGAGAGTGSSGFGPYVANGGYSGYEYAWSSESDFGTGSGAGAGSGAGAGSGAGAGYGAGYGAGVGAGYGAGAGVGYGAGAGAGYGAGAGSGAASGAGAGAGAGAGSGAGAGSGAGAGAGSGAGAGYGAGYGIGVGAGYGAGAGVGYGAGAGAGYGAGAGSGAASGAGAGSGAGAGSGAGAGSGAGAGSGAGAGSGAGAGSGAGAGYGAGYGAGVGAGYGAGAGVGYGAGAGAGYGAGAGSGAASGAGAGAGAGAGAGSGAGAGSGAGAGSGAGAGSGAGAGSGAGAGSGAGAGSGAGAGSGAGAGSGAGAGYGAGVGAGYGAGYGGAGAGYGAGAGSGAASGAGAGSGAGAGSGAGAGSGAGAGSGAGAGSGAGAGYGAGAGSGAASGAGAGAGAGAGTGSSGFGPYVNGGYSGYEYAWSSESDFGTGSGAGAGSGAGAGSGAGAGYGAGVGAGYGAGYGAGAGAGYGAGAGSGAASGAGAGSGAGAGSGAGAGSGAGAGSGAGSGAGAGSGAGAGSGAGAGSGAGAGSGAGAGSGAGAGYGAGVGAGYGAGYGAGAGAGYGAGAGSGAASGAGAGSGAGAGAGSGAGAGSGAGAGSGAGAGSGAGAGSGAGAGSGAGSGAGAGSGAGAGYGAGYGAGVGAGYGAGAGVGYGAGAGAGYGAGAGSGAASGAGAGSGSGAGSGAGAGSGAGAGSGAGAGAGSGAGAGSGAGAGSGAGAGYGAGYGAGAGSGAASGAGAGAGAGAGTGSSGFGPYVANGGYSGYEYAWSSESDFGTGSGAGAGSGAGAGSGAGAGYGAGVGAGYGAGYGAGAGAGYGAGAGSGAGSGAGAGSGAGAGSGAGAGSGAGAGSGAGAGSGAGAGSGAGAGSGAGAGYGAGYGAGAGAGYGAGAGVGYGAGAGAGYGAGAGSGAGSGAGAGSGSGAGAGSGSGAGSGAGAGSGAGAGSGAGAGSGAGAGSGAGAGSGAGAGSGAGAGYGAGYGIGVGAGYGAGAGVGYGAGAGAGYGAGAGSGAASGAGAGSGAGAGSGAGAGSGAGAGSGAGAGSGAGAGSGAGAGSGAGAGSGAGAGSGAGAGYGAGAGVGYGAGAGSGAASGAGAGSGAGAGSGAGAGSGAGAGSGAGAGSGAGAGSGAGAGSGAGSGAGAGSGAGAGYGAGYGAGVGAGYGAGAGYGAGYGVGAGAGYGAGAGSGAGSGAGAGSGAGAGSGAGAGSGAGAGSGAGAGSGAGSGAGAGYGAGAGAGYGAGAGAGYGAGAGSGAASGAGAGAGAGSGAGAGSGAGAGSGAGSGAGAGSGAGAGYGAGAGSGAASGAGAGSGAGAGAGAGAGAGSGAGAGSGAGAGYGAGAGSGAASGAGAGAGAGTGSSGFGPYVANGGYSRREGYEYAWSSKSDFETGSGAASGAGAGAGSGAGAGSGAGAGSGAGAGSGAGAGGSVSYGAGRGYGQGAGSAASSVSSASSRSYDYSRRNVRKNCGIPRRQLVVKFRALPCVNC

B1: fibroin light chain (Fib-L) (protein, UniProt P21828 17-262)
chain: APSVTINQYSDNEIPRDIDDGKASSVISRAWDYVDDTDKSIAILNVQEILKDMASQGDYASQASAVAQTAGIIAHLSAGIPGDACAAANVINSYTDGVRSGNFAGFRQSLGPFFGHVGQNLNLINQLVINPGQLRYSVGPALGCAGGGRIYDFEAAWDAILASSDSSFLNEEYCIVKRLYNSRNSQSNNIAAYITAHLLPPVAQVFHQSAGSITDLLRGVGNGNDATGLVANAQRYIAQAASQVHV
B2: P25 (protein, UniProt P04148 17-220)
chain: AGPPSPIYRPCYLDDYKCISDHLAANSKCIPGRGQIPSQYEIPVFQFEIPYFNATYVDHNLITRNHDQCRVSEFYDNVRTLKTVLTVDCPWLNFESNRTLAQHMSFKEDVVLSFYINGSYPLIRLTTVFDKGNNFDLCSAFTFADLAGGLPIFHINPNDQRTAQWLSKDLTLLHIYEREHIFGKRNWLARSFISRTLCDFGCQH

Biological target: fibroin heavy chain (Fib-H) (Bombyx mori (endogenous in the silk gland)) (UniProt P05790)
Experiment: native gel or EMSA

Binder	binding
B1	binds
B2	binds
